Test results as given in PMC11178805, “Ligand-based design of [^18F]OXD-2314 for PET imaging in non-Alzheimer’s disease tauopathies” (Nature Communications, 2024).
This continues a long series; more values of the same kind are listed elsewhere.

Experiment: Dynamic PET imaging with [^18F]OXD-2314 in baboons
Format: in vivo
Details: PET time-activity curve, Figure S18
Protocol: Dynamic PET imaging was performed in a rhesus macaque (macaca mulatta) monkey following the injection of [^18F]OXD-2314 at baseline (104.9 MBq, n = 1) and was repeated in a second [^18F]OXD-2314 study (115.8 MBq, n = 1) where a displacing dose of unlabeled OXD-2314 (0.5 mg/kg) was administered 10 min after [^18F]OXD-2314 injection to verify the absence of specific binding in NHP brain. Venous blood samples were drawn to characterize the metabolic fate of [^18F]OXD-2314 in the macaque. Dynamic [^18F]OXD-2314 PET imaging was also performed in a male (106.6 MBq, n = 1) and a female (115.8 MBq, n = 1) baboon (papio anubis), and venous blood samples were drawn in both baboons to characterize potential effects of sex on radiometabolism. Bilateral regions of interest were defined on 5–8 contiguous axial image planes for the lateral temporal cerebral cortex, cerebellum, striatum, and whole brain, which were used to sample dynamic [^18F]OXD-2314 PET images to determine the time-varying radioactivity concentration expressed in SUV units. [^18F]OXD-2314 readily entered macaque brain (whole brain peak ~2.2 SUV at ~2 min) and distributed uniformly throughout cortical and subcortical grey matter regions (Fig. 5A). […] Radiometabolite analysis of macaque venous blood identified only one, polar radiometabolite, which increased from 37% at 10 min to 77% at 90 min post-injection and was not likely brain penetrant (Figs. S19, S20).
The rate of uptake and clearance of [^18F]OXD-2314 in the brains of a male and a female baboon were compared (Fig. 6A). Initial whole brain uptake was rapid in both baboons, with peak uptake achieved in ~2 min with an SUV of ~2.8 in the male baboon and an SUV of ~1.9 in the female baboon. […] It is not known whether the higher initial brain uptake of [^18F]OXD-2314 observed in a male baboon is due to sex differences, normal physiologic variability, or the additional variability introduced by the effects of anesthesia. No evidence of elevated uptake or retention in the baboon striatum following [^18F]OXD-2314 injection was observed (Fig. S16), a region where high levels of PSP and CBD pathology are expected. Therefore, the normal brain retention patterns of [^18F]OXD-2314 are unlikely to confound the detection of specific signal from PSP and CBD pathology in human subjects.
NHP imaging studies in a male (13 kg) macaca mulata monkey and male (25.7 kg) and female (14.2 kg) papio anubis baboons were carried out in accordance with the guidelines set forth by the Institutional Animal Care and Use Committee at the University of Pittsburgh. Additional details regarding the maintenance of an active environmental enrichment program for the housed NHPs are described in Supplemental Information. Dynamic [^18F]OXD-2314 PET imaging of the brains of the isoflurane anesthetized NHPs was performed using a Siemens Biograph mCT Flow 64-4 R PET/CT scanner ([…], maximum intrinsic spatial resolution of 4.3 mm FWHM[53]. Following a low-dose CT scan for attenuation correction of PET emission data, [^18F]OXD-2314 was injected intravenously and emission data were acquired in list-mode for a period of 90 min. Emission data were binned into a dynamic series of 32 frames (20 sec-10 min) and reconstructed using filtered back projection with Fourier rebinning (FORE + FBP) with standard corrections applied that included attenuation, scatter, electronics dead-time, and physical decay.

CO[C@H]1CCCN(c2ccc(-c3cc4cc(O)ccc4[nH]3)c([18F])n2)C1 [[^18F]OXD-2314]
Cerebellum SUV (Time 0.166667 min): 0.1377 SUV | Cortex SUV (Time 0.166667 min): 0.1198 SUV | Striatum SUV (Time 0.166667 min): 0.1133 SUV | Whole Brain SUV (Time 0.166667 min): 0.1112 SUV | Cerebellum SUV (Time 0.5 min): 3.685 SUV | Cortex SUV (Time 0.5 min): 2.615 SUV | Striatum SUV (Time 0.5 min): 2.848 SUV | Whole Brain SUV (Time 0.5 min): 2.426 SUV | Cerebellum SUV (Time 0.833333 min): 3.716 SUV | Cortex SUV (Time 0.833333 min): 2.798 SUV | Striatum SUV (Time 0.833333 min): 3.058 SUV | Whole Brain SUV (Time 0.833333 min): 2.708 SUV | Cerebellum SUV (Time 1.16667 min): 3.687 SUV | Cortex SUV (Time 1.16667 min): 2.909 SUV | Striatum SUV (Time 1.16667 min): 3.619 SUV | Whole Brain SUV (Time 1.16667 min): 2.788 SUV | Cerebellum SUV (Time 1.5 min): 3.989 SUV | Cortex SUV (Time 1.5 min): 2.971 SUV | Striatum SUV (Time 1.5 min): 3.29 SUV | Whole Brain SUV (Time 1.5 min): 2.805 SUV | Cerebellum SUV (Time 1.83333 min): 4.135 SUV | Cortex SUV (Time 1.83333 min): 3.03 SUV | Striatum SUV (Time 1.83333 min): 3.821 SUV | Whole Brain SUV (Time 1.83333 min): 2.829 SUV | Cerebellum SUV (Time 2.25 min): 3.6952 SUV | Cortex SUV (Time 2.25 min): 3.134 SUV | Striatum SUV (Time 2.25 min): 3.309 SUV | Whole Brain SUV (Time 2.25 min): 2.8189 SUV
